Source: patent publication US20100286152A1, “N-PHENYL HYDRAZIDES AS MODULATORS OF THE GHRELIN RECEPTOR” (Glaxo Group Limited, priority 2007, published 2010)
Some of these results come from one statement about several compounds together.

Sequences of proteins named here, by UniProt entry; tags and fusion partners are left off.
UniProt Q92847, whole entry: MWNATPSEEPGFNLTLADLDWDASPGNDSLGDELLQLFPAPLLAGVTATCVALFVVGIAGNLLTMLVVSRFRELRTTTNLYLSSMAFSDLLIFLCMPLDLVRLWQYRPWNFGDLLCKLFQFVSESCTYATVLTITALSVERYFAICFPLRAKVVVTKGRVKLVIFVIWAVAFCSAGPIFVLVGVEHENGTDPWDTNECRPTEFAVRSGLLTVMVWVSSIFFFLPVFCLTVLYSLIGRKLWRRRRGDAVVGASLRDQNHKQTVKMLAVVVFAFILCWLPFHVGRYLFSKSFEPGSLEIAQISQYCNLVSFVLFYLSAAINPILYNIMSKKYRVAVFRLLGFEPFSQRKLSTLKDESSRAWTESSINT

Biological target: T1, Human GHS-R (ghrelin receptor) (Homo sapiens, UniProt Q92847)
T1 construct: The full-length gene was transferred into pCDN for expression analysis; expressed in transfected cells; host or cells: U2OS cells transduced with human GHSR BacMam virus
Assay: GHSR Antagonist BACMAM FLIPR Assay
Assay type: cell-based
Settings: U2OS cells transiently expressing human GHS-R; inhibition of EC80 concentration of hGhrelin; FLIPR fluorescence

Row | Structure (SMILES) | pIC50
1 | CN1CCN(C(C(=O)NNc2cc(C(F)(F)F)cc(C(F)(F)F)c2)c2cccc(Cl)c2)CC1.O=CO (racemic) [Compound 45, (±)-formic acid-N′-[3,5-bis(trifluoromethyl)phenyl]-2-(3-chlorophenyl)-2-(4-methyl-1-piperazinyl)acetohydrazide] | greater than 5.5
2 | CN1CCN(C(C(=O)NNc2cc(C(F)(F)F)cc(C(F)(F)F)c2)c2cccc3c2OC(F)(F)O3)CC1 (racemic) [Compound 46, (±)-N′-[3,5-bis(trifluoromethyl)phenyl]-2-(2,2-difluoro-1,3-benzodioxol-4-yl)-2-(4-methyl-1-piperazinyl)acetohydrazide] | greater than 5.5
3 | CN1CCC(C(C(=O)NNc2cc(Cl)cc(Cl)c2)c2ccc3c(c2)OCO3)CC1 (racemic) [Compound 69, (±)-2-(1,3-benzodioxol-5-yl)-N′-(3,5-dichlorophenyl)-2-(1-methyl-4-piperidinyl)acetohydrazide] | greater than 5.5
4 | CN1CCC(C(C(=O)NNc2cc(Cl)cc(Cl)c2)c2cccc3ccccc23)CC1 (racemic) [Compound 72, (±)-N′-(3,5-dichlorophenyl)-2-(1-methyl-4-piperidinyl)-2-(1-naphthalenyl)-acetohydrazide] | greater than 5.5
5 | CN1CCN(C(C)(C(=O)NNc2cc(C(F)(F)F)cc(C(F)(F)F)c2)c2ccc3c(c2)OCO3)CC1 (single isomer, unassigned) [Compound 128, 2-(1,3-benzodioxol-5-yl)-N′-[3,5-bis(trifluoromethyl)phenyl]-2-(4-methyl-1-piperazinyl)propanohydrazide] | greater than 5.5
6 | CN1CCN(C(C)(C(=O)NNc2cc(C(F)(F)F)cc(C(F)(F)F)c2)c2ccccn2)CC1 (single isomer, unassigned) [Compound 130, N′-[3,5-bis(trifluoromethyl)phenyl]-2-(4-methyl-1-piperazinyl)-2-(2-pyridinyl)propanohydrazide] | greater than 5.5
7 | Cc1ccc(C(C(=O)NNc2cc(C(F)(F)F)cc(C(F)(F)F)c2)N2CCN3CCC[C@@H]3C2)c(C)n1 (single isomer, unassigned; diastereoisomer 1) [Compound 80] | greater than 5.5
8 | Cc1ccc(C(C(=O)NNc2cc(C(F)(F)F)cc(C(F)(F)F)c2)N2CCN3CCC[C@@H]3C2)cn1 (single isomer, unassigned; diastereoisomer 1) [Compound 92] | greater than 5.5
9 | Cc1ncccc1C(C(=O)NNc1cc(C(F)(F)F)cc(C(F)(F)F)c1)N1CCN2CCC[C@@H]2C1 (single isomer, unassigned; diastereoisomer 1) [Compound 94] | greater than 5.5
10 | O=C(NNc1cc(C(F)(F)F)cc(C(F)(F)F)c1)C(c1ccc2c(c1)OCCO2)N1CCN2CCC[C@@H]2C1 (single isomer, unassigned; diastereoisomer 1) [Compound 96] | greater than 5.5
11 | Cc1cccc(C(C(=O)NNc2cc(C(F)(F)F)cc(C(F)(F)F)c2)N2CCN(C)CC2)c1 (single isomer, unassigned; enantiomer 1) [Compound 12, N′-[3,5-bis(trifluoromethyl)phenyl]-2-(3-methylphenyl)-2-(4-methyl-1-piperazinyl)acetohydrazide-enantiomer 1] | greater than 5.5
12 | Cc1ccccc1C(C(=O)NNc1cc(C(F)(F)F)cc(C(F)(F)F)c1)N1CCN(C)CC1 (single isomer, unassigned; enantiomer 1) [Compound 14, N′-[3,5-bis(trifluoromethyl)pheny]-2-(2-methylphenyl)-2-(4-methyl-1-piperazinyl)acetohydrazide-enantiomer 1] | greater than 5.5
13 | CN1CCN(C(C(=O)NNc2cc(C(F)(F)F)cc(C(F)(F)F)c2)c2ccccc2F)CC1 (single isomer, unassigned; enantiomer 1) [Compound 16, N′-[3,5-bis(trifluoromethyl)phenyl]-2-(2-fluorophenyl)-2-(4-methyl-1-piperazinyl)acetohydrazide-enantiomer 1] | greater than 5.5
14 | CN1CCN(C(C(=O)NNc2cc(Cl)cc(Cl)c2)c2ccc3c(c2)CCO3)CC1 (single isomer, unassigned; enantiomer 1) [Compound 18, N′-(3,5-dichlorophenyl)-2-(2,3-dihydro-1-benzofuran-5-yl)-2-(4-methylpiperazin-1-yl)acetohydrazide-enantiomer 1] | greater than 5.5
15 | CN1CCN(C(C(=O)NNc2cc(C(F)(F)F)cc(C(F)(F)F)c2)c2ccc3c(c2)CCO3)CC1 (single isomer, unassigned; enantiomer 1) [Compound 20, N′-[3,5-bis(trifluoromethyl)phenyl]-2-(2,3-dihydro-1-benzofuran-5-yl)-2-(4-methyl-1-piperazinyl)acetohydrazide-enantiomer 1] | greater than 5.5
16 | CN1CCN(C(C(=O)NNc2cc(C(F)(F)F)cc(C(F)(F)F)c2)c2cccc(F)c2F)CC1 (single isomer, unassigned; enantiomer 1) [Compound 22, N′-[3,5-bis(trifluoromethyl)phenyl]-2-(2,3-difluorophenyl)-2-(4-methyl-1-piperazinyl)acetohydrazide-enantiomer 1] | greater than 5.5
17 | CN1CCN(C(C(=O)NNc2cc(C(F)(F)F)cc(C(F)(F)F)c2)c2c(F)cccc2F)CC1 (single isomer, unassigned; enantiomer 1) [Compound 24, N′-[3,5-bis(trifluoromethyl)phenyl]-2-(2,6-difluorophenyl)-2-(4-methyl-1-piperazinyl)acetohydrazide-enantiomer 1] | greater than 5.5
18 | O=C(NNc1cc(C(F)(F)F)cc(C(F)(F)F)c1)C(c1ccccc1Cl)N1CCNCC1 (single isomer, unassigned; enantiomer 1) [Compound 26, N′-[3,5-bis(trifluoromethyl)phenyl]-2-(2-chlorophenyl)-2-(1-piperazinyl)acetohydrazide-enantiomer 1] | greater than 5.5
19 | COc1ccccc1C(C(=O)NNc1cc(C(F)(F)F)cc(C(F)(F)F)c1)N1CCN(C)CC1 (single isomer, unassigned; enantiomer 1) [Compound 28, N′-[3,5-bis(trifluoromethyl)phenyl]-2-[2-(methyloxy)phenyl]-2-(4-methyl-1-piperazinyl)acetohydrazide-enantiomer 1] | greater than 5.5
20 | COc1cccc(F)c1C(C(=O)NNc1cc(C(F)(F)F)cc(C(F)(F)F)c1)N1CCN(C)CC1 (single isomer, unassigned; enantiomer 1) [Compound 30, N′-[3,5-bis(trifluoromethyl)phenyl]-2-[2-fluoro-6-(methyloxy)phenyl]-2-(4-methyl-1-piperazinyl)acetohydrazide-enantiomer 1] | greater than 5.5
21 | CN1CCN(C(C(=O)NNc2cc(C(F)(F)F)cc(C(F)(F)F)c2)c2cccc3c2OCCO3)CC1 (single isomer, unassigned; enantiomer 1) [Compound 32, N′-[3,5-bis(trifluoromethyl)phenyl]-2-(2,3-dihydro-1,4-benzodioxin-5-yl)-2-(4-methyl-1-piperazinyl)acetohydrazide-enantiomer 1] | greater than 5.5
22 | CN1CCN(C(C(=O)NNc2cc(C(F)(F)F)cc(C(F)(F)F)c2)c2ccc3c(c2)OCCO3)CC1 (single isomer, unassigned; enantiomer 1) [Compound 35, N′-[3,5-bis(trifluoromethyl)phenyl]-2-(2,3-dihydro-1,4-benzodioxin-6-yl)-2-(4-methyl-1-piperazinyl)ethanohydrazide-enantiomer 1] | greater than 5.5
23 | CN1CCN(C(C(=O)NNc2cc(Cl)cc(Cl)c2)c2cccc(Cl)c2)CC1 (single isomer, unassigned; enantiomer 1) [Compound 43, 2-(3-chlorophenyl)-N′-(3,5-dichlorophenyl)-2-(4-methyl-1-piperazinyl)acetohydrazide-enantiomer 1] | greater than 5.5
24 | CN1CCN(C(C(=O)NNc2cc(C(F)(F)F)cc(C(F)(F)F)c2)c2cccnc2)CC1 (single isomer, unassigned; enantiomer 1) [Compound 49, 2-(4-methylpiperazin-1-yl)-N′-[3,5-bis(trifluoromethyl)phenyl]-2-pyridin-3-ylacetohydrazide-enantiomer 1] | greater than 5.5
25 | CN1CCN(C(C(=O)NNc2cc(C(F)(F)F)cc(C(F)(F)F)c2)c2ccc3nccn3c2)CC1 (single isomer, unassigned; enantiomer 1) [Compound 51, (±)-N′-[3,5-bis(trifluoromethyl)phenyl]-2-imidazo[1,2-a]pyridin-6-yl-2-(4-methylpiperazin-1-yl)acetohydrazide enantiomer 1] | greater than 5.5
26 | Cc1ncccc1C(C(=O)NNc1cc(C(F)(F)F)cc(C(F)(F)F)c1)N1CCN(C)CC1 (single isomer, unassigned; enantiomer 1) [Compound 53, N′-[3,5-bis(trifluoromethyl)phenyl]-2-(4-methylpiperazin-1-yl)-2-(2-methylpyridin-3-yl)acetohydrazide enantiomer 1] | greater than 5.5
27 | Cc1cccnc1C(C(=O)NNc1cc(C(F)(F)F)cc(C(F)(F)F)c1)N1CCN(C)CC1 (single isomer, unassigned; enantiomer 1) [Compound 55, N′-[3,5-bis(trifluoromethyl)phenyl]-2-(4-methyl-1-piperazinyl)-2-(3-methyl-2-pyridinyl)acetohydrazide-enantiomer 1] | greater than 5.5
28 | Cc1ccc(C(C(=O)NNc2cc(C(F)(F)F)cc(C(F)(F)F)c2)N2CCN(C)CC2)cn1 (single isomer, unassigned; enantiomer 1) [Compound 57, N′-[3,5-bis(trifluoromethyl)phenyl]-2-(4-methyl-1-piperazinyl)-2-(6-methyl-3-pyridinyl)acetohydrazide-enantiomer 1] | greater than 5.5
